Source: patent US5618785A (Centocor, Inc., priority 1995, dated 1997)

Assay: general procedure: Boc solid-phase peptide synthesis; 4-methyl benzhydrylamine resin
Details: whole synthesis, scale 0.5 mmol

Substance: Acetyl-arginyl-glycyl-histidyl-leucyl-valyl-(4-bromo-phenylalanyl)-isoleucyl-glutamine-amide
- crude mass: 512 mg

Substance: Acetyl-arginyl-glycyl-histidyl-leucyl-valyl-phenylalanyl-isoleucyl-glutamine-amide
- crude mass: 760 mg
- isolated mass: 396 mg

Substance: Acetyl-arginyl-glycyl-histidyl-leucyl-valyl-tyrosyl-isoleucyl-glutamine-amide
- crude mass: 592 mg

Substance: Acetyl-tyrosyl-threonyl-lysyl-leucyl-valyl-histidyl-isoleucyl-glutamine-amide
- crude mass: 926 mg
- isolated mass: 298 mg

Substance: Acetyl-tyrosyl-threonyl-lysyl-leucyl-valyl-phenylalanyl-glutaminyl-glutamine-amide
- crude mass: 334 mg

Substance: Acetyl-tyrosyl-threonyl-lysyl-leucyl-valyl-phenylalanyl-isoleucyl-glutamine-amide
- crude mass: 815 mg
- isolated mass: 122 mg

Substance: PEPTIDE1{Y.T.K.[homo-Phe].V.A.I.Q.[am]}$$$$V2.0
- crude mass: 619 mg
- isolated mass: 276 mg

Substance: PEPTIDE1{[ac].Y.T.K.L.V.[D-homo-Phe].I.Q.[am]}$$$$V2.0
- crude mass: 493 mg

Substance: Tyrosyl-threonyl-lysyl-leucyl-valyl-phenylalanyl-isoleucyl-glutamine-amide
- crude mass: 596 mg
- isolated mass: 375 mg

Substance: Tyrosyl-threonyl-lysyl-phenylalanyl-valyl-alanyl-isoleucyl-glutamine-amide
- crude mass: 448 mg
- isolated mass: 309 mg

Substance: Tyrosyl-threonyl-lysyl-tyrosyl-valyl-alanyl-isoleucyl-glutamine-amide
- crude mass: 642 mg
- isolated mass: 385 mg

Substance: Tyrosyl-threonyl-methionyl-leucyl-valyl-alanyl-phenylalanyl-glutamine-amide
- crude mass: 714 mg
- isolated mass: 83 mg

Substance: Tyrosyl-threonyl-methionyl-phenylalanyl-valyl-alanyl-isoleucyl-glutamine-amide
- crude mass: 626 mg
- isolated mass: 107 mg

Some peptides are written in HELM: one residue between dots, names in brackets for other building blocks, links after the first $.
